This data set can be described thus: general procedure: Fmoc solid-phase peptide synthesis; 2-Chlorotrityl Chloride Resin; HBTU. The conditions noted are these: whole synthesis.

End groups of sequences in plain letters are not given here. A value given as a limit tells only on which side of the number the result lay.

For the sequence “TANVTMQLLKIRSGDRPSYVELTFSQH (angiogenesis-inhibiting peptide ZY3)”, the “final HPLC purity” value by setting is: (run 1) more than 95%; (run 2) “over 99%”.
